Test results published in PMC9859756.
Results are given in words; binding and its absence hold for the method and conditions named. Binding seen in cells or lysates may run through a third protein. Some results given as binding are weak or reduced against the parent protein; the word gives no strength. Where a sequence is shown, tags or fusion partners need not be part of it.

The chains behind the UniProt entries cited, without tags or fusion partners.
UniProt Q9QZL0: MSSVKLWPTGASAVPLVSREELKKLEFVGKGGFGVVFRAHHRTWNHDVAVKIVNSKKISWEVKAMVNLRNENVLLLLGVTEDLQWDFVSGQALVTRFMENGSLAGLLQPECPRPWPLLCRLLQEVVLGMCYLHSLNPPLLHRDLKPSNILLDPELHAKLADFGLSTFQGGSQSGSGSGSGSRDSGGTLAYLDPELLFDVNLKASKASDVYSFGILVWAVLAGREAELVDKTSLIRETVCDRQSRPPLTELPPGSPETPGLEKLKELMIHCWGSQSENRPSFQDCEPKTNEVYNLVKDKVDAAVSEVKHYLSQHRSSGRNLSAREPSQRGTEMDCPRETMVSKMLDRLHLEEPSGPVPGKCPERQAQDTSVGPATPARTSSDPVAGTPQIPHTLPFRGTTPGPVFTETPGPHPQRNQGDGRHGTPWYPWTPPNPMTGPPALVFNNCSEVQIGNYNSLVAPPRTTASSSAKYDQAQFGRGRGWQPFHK

Legend:
[1] = molecular target: T1, V5-tagged mouse OASL1 (mouse) (UniProt Q8VI94); experiment: co-IP
T1 sequence: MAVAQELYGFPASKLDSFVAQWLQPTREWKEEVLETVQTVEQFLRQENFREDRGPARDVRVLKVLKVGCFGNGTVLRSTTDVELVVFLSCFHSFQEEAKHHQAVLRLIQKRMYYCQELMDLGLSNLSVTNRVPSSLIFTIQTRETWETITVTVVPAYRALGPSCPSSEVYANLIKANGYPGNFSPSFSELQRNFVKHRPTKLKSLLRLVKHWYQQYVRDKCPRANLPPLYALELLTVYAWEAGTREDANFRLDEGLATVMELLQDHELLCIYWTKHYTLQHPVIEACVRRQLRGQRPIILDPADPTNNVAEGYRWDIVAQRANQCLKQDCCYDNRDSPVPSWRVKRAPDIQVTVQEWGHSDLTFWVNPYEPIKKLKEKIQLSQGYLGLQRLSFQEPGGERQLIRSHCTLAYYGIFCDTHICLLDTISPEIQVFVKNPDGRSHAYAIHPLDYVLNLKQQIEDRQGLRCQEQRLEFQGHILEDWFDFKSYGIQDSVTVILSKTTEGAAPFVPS

[2] = molecular target: T2, V5-tagged mouse OASL2 (mouse) (UniProt Q9Z2F2); experiment: co-IP
T2 sequence: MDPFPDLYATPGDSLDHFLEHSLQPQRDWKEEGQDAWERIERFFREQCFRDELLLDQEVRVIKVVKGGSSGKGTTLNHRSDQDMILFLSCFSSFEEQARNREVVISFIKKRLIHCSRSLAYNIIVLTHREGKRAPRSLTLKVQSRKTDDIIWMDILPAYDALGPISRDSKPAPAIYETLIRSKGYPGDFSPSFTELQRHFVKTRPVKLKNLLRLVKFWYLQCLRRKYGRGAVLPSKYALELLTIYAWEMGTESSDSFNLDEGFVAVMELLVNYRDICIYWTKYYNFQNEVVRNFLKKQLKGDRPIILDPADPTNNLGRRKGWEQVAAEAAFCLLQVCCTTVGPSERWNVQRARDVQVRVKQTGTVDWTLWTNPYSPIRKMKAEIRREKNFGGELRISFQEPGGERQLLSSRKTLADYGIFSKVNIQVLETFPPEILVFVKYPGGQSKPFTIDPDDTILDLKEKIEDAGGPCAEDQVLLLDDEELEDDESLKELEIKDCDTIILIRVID

- binding [1]: binds
- binding [2]: no binding
Substance: HA-tagged full-length mouse RIPK3 (pcDNA3-HA-RIPK3) (from UniProt Q9QZL0 1-486)
